Results from PubChem BioAssay AID294 (DTP/NCI, 2004).
The list is a part of this screen's results and no random one: it is rich in T/C values a quarter to a half above the control, in often repeated tests (any T/C) and in doses without a T/C. Other doses and runs of a compound stand elsewhere. T/C gives the treated animals as a percentage of the vehicle group. Schedule codes are those of the source, taken here to give the interval after Q, in days (D) or hours (H), and the number of doses after X. Some T/C values are followed by the survivors on the day toxicity was checked, most often the fifth; without a count, all were alive then. Some entries give survivors of the animals treated and no T/C: the source files T/C as zero there, which appears to mark a toxic dose or a test without result, not a measured value. Counts of survivors are from the toxicity check (mostly the fifth day) where no day follows; animals may have died later. Some doses were run more than once; the results are listed from low to high. Some molecules as drawn cover several salts, stereoisomers or complexes of the source; a dose is that of the sample tested.

Test system: MX-1 breast xenograft, nude mice, tumor weight change
Assay: NCI In Vivo Anticancer Drug Screen. Data for tumor model Human Mammary Carcinoma MX-1 Xenograft (subcutaneous) in NU/NU Swiss (nude) mice
Conditions: T/C endpoint: optimum tumor weight change, higher T/C = larger tumour
Protocol: The antitumor activity of compounds was measured in mice bearing transplantable tumors. Survival or tumor size were measured and the results are expressed as the measurement made in the treated group (T) divided by the measurement made in the vehicle treated control group (C). The tumor model used in this assay is Human Mammary Carcinoma MX-1 Xenograft (subcutaneous) in NU/NU Swiss (nude) mice

[1] = dose: 400.0 mg/kg/injection, schedule: Q04DX003 (ip), vehicle: saline
[2] = dose: 100.0 mg/kg/injection, schedule: Q04DX003 (ip), vehicle: Klucel (hydroxypropylcellulose) (HPC)
[3] = dose: 200.0 mg/kg/injection, schedule: Q04DX003 (ip), vehicle: Klucel (hydroxypropylcellulose) (HPC)
[4] = dose: 400.0 mg/kg/injection, schedule: Q04DX003 (ip), vehicle: Klucel (hydroxypropylcellulose) (HPC)
[5] = dose: 8.0 mg/kg/injection, schedule: Q04DX003 (ip), vehicle: saline
[6] = dose: 200.0 mg/kg/injection, schedule: Q04DX003 (ip), vehicle: saline with Tween-80
[7] = dose: 400.0 mg/kg/injection, schedule: Q04DX003 (ip), vehicle: saline with Tween-80

Structure (SMILES): Nc1cc2[nH]cnc2c(=O)[nH]1
- survivor count [1]: 3 of 5 on day 36

Structure (SMILES): CC(=O)OCC(=O)[C@@]12OC(C)(C)O[C@@H]1C[C@H]1[C@@H]3CC(C=O)=C4C=C(OCCCl)CC[C@]4(C)[C@@]3(F)[C@@H](O)C[C@@]12C
- survivor count [2]: 1 of 5 on day 35
- survivor count [3]: 0 of 5 on day 35
- survivor count [4]: 0 of 5 on day 35

Structure (SMILES): O=C(NO)c1ccccc1
- survivor count (dose: 200.0 mg/kg/injection, schedule: Q01DX003 (ip), vehicle: saline): 2 of 5 on day 39

Structure (SMILES): CN(C)N=Nc1ccccc1
- survivor count [2]: 3 of 5 on day 36
- survivor count [3]: 0 of 5 on day 36

Structure (SMILES): N[C@@H](Cc1ccc(N(CCCl)CCCl)cc1)C(=O)O
- survivor count (dose: 4.0 mg/kg/injection, schedule: Q04DX003 (ip), vehicle: saline): 3 of 5 on day 40
- survivor count [5]: 0 of 5 on day 40
- survivor count (dose: 16.0 mg/kg/injection, schedule: Q04DX003 (ip), vehicle: saline): 0 of 5 on day 40
- survivor count (dose: 16.0 mg/kg/injection, schedule: Q04DX003 (ip), vehicle: suspension in saline): 0 of 5 on day 40

Structure (SMILES): C=C(C)[C@H]1Cc2c(ccc3c2O[C@@H]2COc4cc(OC)c(OC)cc4[C@@H]2C3=O)O1
- survivor count (dose: 6.25 mg/kg/injection, schedule: Q04DX003 (ip), vehicle: saline): 3 of 5 on day 35

Structure (SMILES): Oc1ccc(O)cc1
- T/C (dose: 25.0 mg/kg/injection, schedule: Q04DX003 (ip), vehicle: saline, evaluated on day 39): 139 % of control
- T/C (dose: 50.0 mg/kg/injection, schedule: Q04DX003 (ip), vehicle: saline, evaluated on day 39): 129 % of control [4 of 5 alive on day 39]
- survivor count (dose: 200.0 mg/kg/injection, schedule: Q04DX003 (ip), vehicle: saline): 0 of 5 on day 39

Structure (SMILES): CC[C@](O)(C(=O)O)c1cc2n(c(=O)c1CO)Cc1cc3ccccc3nc1-2
- survivor count [5]: 3 of 5 on day 40
- survivor count (dose: 32.0 mg/kg/injection, schedule: Q04DX003 (ip), vehicle: saline): 3 of 5 on day 40
- survivor count (dose: 64.0 mg/kg/injection, schedule: Q04DX003 (ip), vehicle: saline): 2 of 5 on day 40

Structure (SMILES): C1OC1CN1CCN(CC2CO2)CC1 (configuration not stated)
- survivor count (dose: 50.0 mg/kg/injection, schedule: Q04DX003 (ip), vehicle: saline): 0 of 5 on day 36

Structure (SMILES): C[C@]12CC[C@@H]3c4ccc(OC(=O)Cc5ccc(N(CCCl)CCCl)cc5)cc4CC[C@H]3[C@@H]1CC[C@@H]2OC(=O)Cc1ccc(N(CCCl)CCCl)cc1
- survivor count [6]: 2 of 5 on day 38
- survivor count [7]: 0 of 5 on day 38
- survivor count (dose: 1600.0 mg/kg/injection, schedule: Q04DX003 (ip), vehicle: saline with Tween-80): 1 of 5 on day 38

Structure (SMILES): OCC1OC(n2cnc3cncnc32)C(O)C1O (configuration not stated)
- survivor count (dose: 100.0 mg/kg/injection, schedule: Q04DX003 (ip), vehicle: saline): 0 of 5 on day 40

Structure (SMILES): C=CC(=O)NCNC(=O)C=C
- survivor count (dose: 400.0 mg/kg/injection, schedule: Q04DX003 (ip), vehicle: suspension in saline): 2 of 5 on day 40

Structure (SMILES): N/C(=N\O)c1cn(C2OC(CO)C(O)C2O)c2ncnc(N)c12 (configuration not stated)
- survivor count (dose: 40.0 mg/kg/injection, schedule: Q04DX003 (ip), vehicle: Klucel (hydroxypropylcellulose) (HPC)): 0 of 5 on day 38

Structure (SMILES): CC(=O)OCC1OC(n2ccc(N)nc2=O)C(OC(C)=O)C1OC(C)=O (configuration not stated)
- survivor count (dose: 600.0 mg/kg/injection, schedule: Q04DX003 (ip), vehicle: suspension in saline): 1 of 5 on day 40
- survivor count (dose: 1200.0 mg/kg/injection, schedule: Q04DX003 (ip), vehicle: suspension in saline): 0 of 5 on day 40
- survivor count (dose: 2400.0 mg/kg/injection, schedule: Q04DX003 (ip), vehicle: suspension in saline): 1 of 5 on day 40

Structure (SMILES): CN(N=O)C(=O)N[C@@H](C=O)[C@@H](O)[C@H](O)[C@H](O)CO
- survivor count [1]: 0 of 5 on day 34
- survivor count (dose: 800.0 mg/kg/injection, schedule: Q04DX003 (ip), vehicle: saline): 0 of 5 on day 34

Structure (SMILES): COc1cccc2c1C(=O)c1c(O)c3c(c(O)c1C2=O)C[C@@](O)(C(=O)CO)C[C@@H]3OC1CC(N)C(O)C(C)O1 (some centres not stated)
- survivor count (dose: 5.0 mg/kg/injection, schedule: Q07DX004 (iv), vehicle: saline): 5 of 10
- survivor count (dose: 8.0 mg/kg/injection, schedule: Q04DX003 (ip), vehicle: water): 0 of 5 on day 34, 0 of 5 on day 35, 2 of 5 on day 35

Structure (SMILES): ClCC[N+]12CC[N+](CCCl)(CC1)C2
- survivor count (dose: 100.0 mg/kg/injection, schedule: Q04DX003 (ip), vehicle: water): 0 of 5 on day 35
- survivor count [6]: 3 of 5 on day 40
- survivor count [7]: 2 of 5 on day 40 and 3 of 5 on day 35
- survivor count (dose: 800.0 mg/kg/injection, schedule: Q04DX003 (ip), vehicle: saline with Tween-80): 3 of 5 on day 35 and 3 of 5 on day 40

Structure (SMILES): NC(=O)c1ccc[n+](Cc2c(Cl)cccc2Cl)c1
- T/C (dose: 6.0 mg/kg/injection, schedule: Q04DX003 (ip), vehicle: saline, evaluated on day 39): 147 % of control
- T/C (dose: 12.0 mg/kg/injection, schedule: Q04DX003 (ip), vehicle: saline, evaluated on day 39): 126 % of control
- survivor count (dose: 12.0 mg/kg/injection, schedule: Q04DX003 (ip), vehicle: saline): 3 of 5 on day 36
- T/C (dose: 48.0 mg/kg/injection, schedule: Q04DX003 (ip), vehicle: saline, evaluated on day 34): 135 % of control [4 of 5 alive on day 36]

Structure (SMILES): CCCC(=O)OCc1cc(=O)n(C)c2c3c4c(cc12)c(C)cc(=O)n4CO3
- survivor count [3]: 0 of 5 on day 36
- survivor count [4]: 0 of 5 on day 36

Structure (SMILES): COc1cc([C@@H]2c3cc4c(c(O)c3C[C@H]3COC(=O)[C@@H]32)OCO4)cc(OC)c1O
- survivor count (dose: 12.5 mg/kg/injection, schedule: Q04DX003 (ip), vehicle: saline): 3 of 5 on day 35
- survivor count (dose: 25.0 mg/kg/injection, schedule: Q04DX003 (ip), vehicle: saline): 0 of 5 on day 35

Structure (SMILES): Cc1c(N)nc(C(CC(N)=O)NCC(N)C(N)=O)nc1C(=O)NC(C(=O)NC(C)C(O)C(C)C(=O)NC(C(=O)NCCc1nc(-c2nc(C(=O)NCCCNC(C)c3ccccc3)cs2)cs1)C(C)O)C(OC1OC(CO)C(O)C(O)C1OC1OC(CO)C(O)C(OC(N)=O)C1O)c1cnc[nH]1 (configuration not stated)
- survivor count (dose: 7.5 mg/kg/injection, schedule: Q04DX003 (ip), vehicle: saline): 3 of 5 on day 40
- survivor count (dose: 30.0 mg/kg/injection, schedule: Q04DX003 (ip), vehicle: saline): 3 of 5 on day 40
- survivor count (dose: 60.0 mg/kg/injection, schedule: Q04DX003 (ip), vehicle: saline): 1 of 5 on day 36 and 1 of 5 on day 40

Structure (SMILES): CC1CCC(NC(=O)N(CCCl)N=O)CC1 (configuration not stated)
- survivor count (dose: 50.0 mg/kg/injection, schedule: Q04DX003 (ip), vehicle: Klucel (hydroxypropylcellulose) (HPC)): 3 of 5 on day 37
- survivor count [2]: 1 of 5 on day 37

Structure (SMILES): CO[C@H]1C[C@](C)(O)Cc2cc3c(c(O)c21)C(=O)c1c(O)cc2c(c1C3=O)O[C@@H]1O[C@@]2(C)[C@H](O)[C@@H](N(C)C)[C@@H]1O
- T/C (dose: 25.0 mg/kg/injection, schedule: Q04DX003 (ip), vehicle: other, evaluated on day 34): 133 % of control
- T/C (dose: 25.0 mg/kg/injection, schedule: Q04DX003 (ip), vehicle: other, evaluated on day 40): 147 % of control
- survivor count (dose: 50.0 mg/kg/injection, schedule: Q04DX003 (ip), vehicle: other): 0 of 5 on day 40
- survivor count (dose: 100.0 mg/kg/injection, schedule: Q04DX003 (ip), vehicle: other): 0 of 5 on day 40

Structure (SMILES): COc1cc([C@@H]2c3cc4c(c(O)c3C[C@H]3COC(=O)[C@@H]32)OCO4)cc(OC)c1OC
- survivor count (dose: 20.0 mg/kg/injection, schedule: Q04DX003 (ip), vehicle: saline): 2 of 5 on day 35

Structure (SMILES): C=CC(=O)N1CN(C(=O)C=C)CN(C(=O)C=C)C1
- survivor count (dose: 25.0 mg/kg/injection, schedule: Q04DX003 (ip), vehicle: saline with Tween-80): 0 of 5 on day 35
- survivor count (dose: 50.0 mg/kg/injection, schedule: Q04DX003 (ip), vehicle: saline with Tween-80): 0 of 5 on day 35
- survivor count (dose: 100.0 mg/kg/injection, schedule: Q04DX003 (ip), vehicle: saline with Tween-80): 0 of 5 on day 35
